System: MVP
Assay: MVP expression in kidneys of peptide-treated mice (immunoblotting)
Assay type: in vivo
Conditions: 2400 ug/kg intraperitoneally, three times/week for 4-weeks

Substance	MVP expression in kidneys
GRGESP (cyclised or stapled) [cyclic-GRGESP, RGE peptide used as negative control, reference compound]	no significant changes
GRGDSP [cyclic-GRGDSP]	no significant changes

Source: patent US20140194361A1, “Vault Agents for Treating Chronic Kidney Disease” (priority 2010, published 2014)
